Values of other authors, collected in PMC8133002, “Disruption of microtubule function in cultured human cells by a cytotoxic ruthenium(II) polypyridyl complex” (Chemical Science, 2019).

Tested on: MCF7
Design: method as in PMID 23590802
Conditions: cited from earlier work

In the case of CC(=O)O[C@H]1C(=O)[C@@]2(C)[C@H]([C@H](OC(=O)c3ccccc3)[C@]3(O)C[C@H](OC(=O)[C@H](O)[C@@H](NC(=O)c4ccccc4)c4ccccc4)C(C)=C1C3(C)C)[C@]1(OC(C)=O)CO[C@@H]1C[C@@H]2O [PTX, paclitaxel], the IC50 is listed as 25 nM.
